Primary screen of a compound library

Measurements from “University of Dundee, Small-Polar-MMV Screening Library” (2021), ChEMBL document CHEMBL3988442.

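Phenotypic screen: M. tuberculosis growth, glucose 7H9 medium, 3 days; the read-out is not stated. Concentration: 50 µM. Direction is inferred from retests: higher values go with more growth inhibition. About 69,000 compounds were tested under these conditions; 1.1% (about 760) showed 50% or more at least once.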

Each number is a percent effect as filed. The controls that fix the scale are not given in the record; negative values are as filed. The compounds are a random part of those screened. Two or more numbers in one place are separate tests of the same structure; such repeats can differ widely.

With CC(Cn1cccn1)NCC(=O)NCCc1cccs1 (configuration not stated) the screen gave 9.858%.
With CCn1cc(C2=CCN(CCCOc3ccccc3)CC2)cn1 the screen gave 11.97%.
With Cc1cccc2sc(NC(=O)CN3CCCC4(CC3)CNC(=O)O4)nc12 (configuration not stated) the screen gave 15.69%.
With CN1CCCC(CCC(=O)N2CCc3[nH]c(-c4ccccc4)nc3C2)C1 (configuration not stated) the screen gave -4.903%.
With CCc1ccc(CN2CCN(C)C3(CCC(=O)N(CC4CC4)CC3)C2)o1 (configuration not stated) the screen gave 23.91%.
With CCn1[nH]c(C)c2c(C(F)(F)F)cc(=O)nc1-2 the screen gave 6.707%.
With Cc1cc(Nc2cnccn2)cc(C2CCCNC2)n1 (configuration not stated) the screen gave 7.076%.
With O=C(Nc1nncs1)c1ccc(-n2cnnn2)cc1 the screen gave -11.18% and -27.24%.
With CC(c1nnc(-c2cccs2)o1)N1CCc2cncnc2C1 (configuration not stated) the screen gave -18.13%.
With c1ccc(Cn2cccn2)c(CNCc2cnc(N3CCCC3)nc2)c1 the screen gave 16.21%.
With CC(OCCCNC(=O)c1cccnc1O)c1ccccc1 (configuration not stated) the screen gave -22.02%.
With Cn1cnnc1-c1cncc(NCc2cccc3c2OCO3)c1 the screen gave -7.544% and 4.178%.
With CC(C)CN1CC(c2nc(CCc3ccccc3)n[nH]2)CC1=O (configuration not stated) the screen gave 6.465%.
With CC(NCc1cnc(C2CCC2)s1)c1cccc(-n2cccn2)c1 (configuration not stated) the screen gave 33.07%.
With Cc1nc(CN2CCN(CC(=O)Nc3c(C)cccc3C)CC2)no1 the screen gave 14.88%.
With CCN(CC)C(=O)CNC(=O)c1cnc(-c2ccccc2)nc1 the screen gave 37.16% and 5.628%.
With Cc1nccn1-c1ccc(CNC(=O)c2ccc[nH]2)cn1 the screen gave -13.02%.
With COc1ccccc1-n1cc(C(=O)NCCn2nc(C)nc2C)cn1 the screen gave -14.83%.
With Cc1nn(CCO)c(C)c1CNC1CCc2c(Cl)cccc21 (configuration not stated) the screen gave -1.539%.
With O=C(O)C(F)(F)F.O=C(O)C(F)(F)F.[H][C@@]12CCCO[C@]1([H])[C@@H](OCc1cccc(C)n1)CN2c1nnc(C)s1 the screen gave 5.926% and -9.17%.
With CC1CCCCN1C1CN(c2nc(C3CCCC3)nc3c2cnn3C)C1 (configuration not stated) the screen gave -0.9756% and -0.1921%.
With COc1ccc(C(=O)Nc2c(C(=O)N(C)C)nn(C)c2C)cc1 the screen gave 12.63%.
With CN(C)CC1CSCCCN1C(=O)c1ccsc1 (configuration not stated) the screen gave -3.513%.
With [H][C@@]12CS(=O)(=O)C[C@]1([H])N(S(=O)(=O)c1cn(C)cn1)CCN2CC(C)C the screen gave -15.29%.
With O=C(O)C(F)(F)F.O=S(=O)(C1CC1)N1CCC[C@]2(C[C@@H](Oc3ccccn3)CO2)C1 the screen gave 11.32% and 10.49%.
With CCNc1cc2c(nn1)CCN(C(=O)C1Cc3ccccc3S1)C2 (configuration not stated) the screen gave -4.794%.
With O=c1cc(CN2CCC(CCc3ccc(O)cc3)CC2)[nH]c(=O)[nH]1 the screen gave 28.84% and 3.952%.
With Cc1ncsc1C(=O)N(C)Cc1ccccc1 the screen gave -31.19%.
With Cc1cnc(N2CCC3(CCN(CC4CC4)C3=O)CC2)nc1 the screen gave -2.238%.
With O=C(CSc1nnc[nH]1)NCc1cccs1 the screen gave 4.772%.
With Cc1nc(N2CCCC2)nc2c1CN(C(=O)c1ccco1)CC2 the screen gave 10.98% and -28.09%.
With F[C@@H]1CN(CC2CC2)C[C@@H]1OCc1nc2ccc(C(F)(F)F)cc2[nH]1 the screen gave 25.07% and 29.17%.
With Cc1noc(C(C)C)c1C(=O)NCC(c1ccsc1)N(C)C (configuration not stated) the screen gave -25.42%.
With OC(CNCCn1cccn1)c1ccc(C(F)(F)F)cc1 (configuration not stated) the screen gave 24.28%.
With CC(COc1ccccc1)NCc1nc(-c2cccnc2)no1 (configuration not stated) the screen gave 6.009% and 7.111%.
With Cc1c(C)n(Cc2ccncc2)c2nc3c(c(N)c12)CCCCCC3 the screen gave 38.72%.
With Cc1occc1C(=O)N1CCC2(CC1)NC(=O)CC2c1cnn(C)c1 (configuration not stated) the screen gave 6.513%.
With [H][C@]12CC[C@]([H])(CN(Cc3cccnc3)C1)N(C(=O)CSc1nncn1C)C2 the screen gave 4.442%.
With CN1CCCC(CCCc2cccnc2)(C(N)=O)C1 (configuration not stated) the screen gave 20.65%.
With CC(OCC1CC1)C(=O)NCc1cccc(CN2CCN(C)CC2)c1 (configuration not stated) the screen gave 4.866%.
With O=C(O)C(F)(F)F.O=C(O)C(F)(F)F.[H][C@@]12CCN(C(=O)C3CC3)C[C@]1([H])[C@@H](CN(C)Cc1cccnc1)OC2 the screen gave -5.114%.

Once more, the final 3:

| SMILES | effect |
|---|---|
| `CN1CCCC(CCCc2cccnc2)(C(N)=O)C1` (configuration not stated) | 20.65 |
| `CC(OCC1CC1)C(=O)NCc1cccc(CN2CCN(C)CC2)c1` (configuration not stated) | 4.866 |
| `O=C(O)C(F)(F)F.O=C(O)C(F)(F)F.[H][C@@]12CCN(C(=O)C3CC3)C[C@]1([H])[C@@H](CN(C)Cc1cccnc1)OC2` | -5.114 |